According to publication PMC4461266 (PLoS Pathogens, 2015):
These are yes or no findings as the source states them, for the method shown. Binding seen in cells or lysates may run through a third protein. Here binding means that the protein was enriched with, or labelled near, the bait; the list need not be complete.

Sequences of proteins named here, by UniProt entry; tags and fusion partners are left off.
UniProt P03431: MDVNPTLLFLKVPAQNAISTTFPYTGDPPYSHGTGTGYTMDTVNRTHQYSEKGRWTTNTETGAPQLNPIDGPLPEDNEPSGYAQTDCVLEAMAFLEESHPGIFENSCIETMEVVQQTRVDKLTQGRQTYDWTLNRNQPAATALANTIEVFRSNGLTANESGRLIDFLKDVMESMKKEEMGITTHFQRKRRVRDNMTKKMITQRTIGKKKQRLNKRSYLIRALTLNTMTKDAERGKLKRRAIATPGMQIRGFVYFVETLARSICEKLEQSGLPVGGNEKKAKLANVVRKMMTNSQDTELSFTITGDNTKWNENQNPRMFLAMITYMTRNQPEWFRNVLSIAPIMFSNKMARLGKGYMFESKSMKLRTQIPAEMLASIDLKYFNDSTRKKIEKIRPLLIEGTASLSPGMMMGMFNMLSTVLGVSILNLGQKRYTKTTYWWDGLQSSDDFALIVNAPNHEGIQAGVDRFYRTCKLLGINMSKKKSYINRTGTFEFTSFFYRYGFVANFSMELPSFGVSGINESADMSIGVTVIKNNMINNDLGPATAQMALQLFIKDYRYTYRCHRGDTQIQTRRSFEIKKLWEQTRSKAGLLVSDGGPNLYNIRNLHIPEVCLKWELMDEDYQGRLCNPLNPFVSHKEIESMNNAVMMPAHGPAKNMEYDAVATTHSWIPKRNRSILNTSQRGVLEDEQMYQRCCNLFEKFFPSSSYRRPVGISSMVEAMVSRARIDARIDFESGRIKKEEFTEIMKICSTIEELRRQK
UniProt P51570: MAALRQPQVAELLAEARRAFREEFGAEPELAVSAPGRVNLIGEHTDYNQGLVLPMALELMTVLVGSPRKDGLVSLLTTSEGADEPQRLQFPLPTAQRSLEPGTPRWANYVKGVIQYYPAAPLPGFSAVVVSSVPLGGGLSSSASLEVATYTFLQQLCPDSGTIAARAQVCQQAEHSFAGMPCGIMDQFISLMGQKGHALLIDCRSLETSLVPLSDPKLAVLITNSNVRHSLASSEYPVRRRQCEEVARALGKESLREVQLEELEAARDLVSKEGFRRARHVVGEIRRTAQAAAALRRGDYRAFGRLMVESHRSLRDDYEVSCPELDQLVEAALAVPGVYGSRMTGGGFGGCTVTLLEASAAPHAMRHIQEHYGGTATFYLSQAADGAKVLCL
UniProt Q6DN90: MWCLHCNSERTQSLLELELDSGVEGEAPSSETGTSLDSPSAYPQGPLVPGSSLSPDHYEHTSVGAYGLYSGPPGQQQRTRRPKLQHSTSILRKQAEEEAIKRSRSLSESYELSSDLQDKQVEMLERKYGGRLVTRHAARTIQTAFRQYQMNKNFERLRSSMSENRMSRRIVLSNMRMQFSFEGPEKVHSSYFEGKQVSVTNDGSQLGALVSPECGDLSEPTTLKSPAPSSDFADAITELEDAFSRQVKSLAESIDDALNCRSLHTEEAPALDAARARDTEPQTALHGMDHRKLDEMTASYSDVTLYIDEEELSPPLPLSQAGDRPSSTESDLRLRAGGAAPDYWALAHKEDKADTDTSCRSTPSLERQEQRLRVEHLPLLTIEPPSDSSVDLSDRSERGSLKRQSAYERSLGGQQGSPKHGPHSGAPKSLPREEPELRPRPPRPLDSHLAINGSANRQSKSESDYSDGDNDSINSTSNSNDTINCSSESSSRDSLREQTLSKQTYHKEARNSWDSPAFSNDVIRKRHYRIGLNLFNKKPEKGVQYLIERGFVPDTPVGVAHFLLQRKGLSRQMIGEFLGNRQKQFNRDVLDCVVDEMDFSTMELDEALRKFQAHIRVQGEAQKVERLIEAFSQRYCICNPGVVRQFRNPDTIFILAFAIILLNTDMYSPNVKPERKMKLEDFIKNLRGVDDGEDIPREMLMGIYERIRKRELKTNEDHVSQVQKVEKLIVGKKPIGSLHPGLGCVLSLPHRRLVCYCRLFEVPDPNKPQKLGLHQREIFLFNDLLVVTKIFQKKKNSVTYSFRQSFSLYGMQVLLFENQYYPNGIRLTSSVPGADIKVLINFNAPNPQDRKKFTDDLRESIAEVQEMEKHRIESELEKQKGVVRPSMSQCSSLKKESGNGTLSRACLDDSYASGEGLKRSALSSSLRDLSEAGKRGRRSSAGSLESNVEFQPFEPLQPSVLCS
UniProt O75340: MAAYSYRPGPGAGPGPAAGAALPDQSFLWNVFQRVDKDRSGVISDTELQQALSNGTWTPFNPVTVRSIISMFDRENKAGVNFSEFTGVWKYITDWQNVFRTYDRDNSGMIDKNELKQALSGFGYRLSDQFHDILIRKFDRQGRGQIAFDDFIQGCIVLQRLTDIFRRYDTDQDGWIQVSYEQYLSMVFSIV
UniProt Q9UNE7: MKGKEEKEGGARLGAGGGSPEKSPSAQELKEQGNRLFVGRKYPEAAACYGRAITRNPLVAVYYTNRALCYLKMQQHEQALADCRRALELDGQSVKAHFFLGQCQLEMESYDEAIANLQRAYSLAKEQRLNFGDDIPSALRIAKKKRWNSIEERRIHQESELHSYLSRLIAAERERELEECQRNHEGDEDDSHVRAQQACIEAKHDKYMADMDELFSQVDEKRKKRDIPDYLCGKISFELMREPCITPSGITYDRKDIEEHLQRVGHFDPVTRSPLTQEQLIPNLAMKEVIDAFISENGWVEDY
UniProt Q13049: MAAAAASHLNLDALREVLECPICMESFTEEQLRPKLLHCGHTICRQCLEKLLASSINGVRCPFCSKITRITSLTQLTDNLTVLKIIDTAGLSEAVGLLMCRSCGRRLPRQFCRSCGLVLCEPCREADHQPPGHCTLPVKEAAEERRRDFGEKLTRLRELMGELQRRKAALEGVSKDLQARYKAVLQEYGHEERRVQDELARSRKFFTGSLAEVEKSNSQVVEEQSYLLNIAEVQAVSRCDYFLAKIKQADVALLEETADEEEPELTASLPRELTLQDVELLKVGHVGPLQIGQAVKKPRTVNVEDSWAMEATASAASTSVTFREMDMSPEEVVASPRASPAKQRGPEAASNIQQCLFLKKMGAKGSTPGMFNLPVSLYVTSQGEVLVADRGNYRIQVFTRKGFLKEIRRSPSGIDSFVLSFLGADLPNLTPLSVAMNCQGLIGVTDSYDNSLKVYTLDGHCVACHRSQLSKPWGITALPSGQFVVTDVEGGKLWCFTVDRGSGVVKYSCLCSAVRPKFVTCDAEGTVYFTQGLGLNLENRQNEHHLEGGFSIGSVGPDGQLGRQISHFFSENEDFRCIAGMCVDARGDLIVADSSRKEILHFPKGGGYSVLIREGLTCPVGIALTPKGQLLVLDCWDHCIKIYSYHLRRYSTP

B1: HAUS6/DGT6 (protein, UniProt Q7Z4H7 1-955)
chain: MSSASVTAFEKEHLWMYLQALGFEPGPATIACGKIVSHTHLGVNMFDKLNRDAFHIISYFLFQVLDQSLTKEVFKFCWPPFDQKSDTEFRKHCCEWIKRISGECGSSFPQVVGSLFLSPGGPKFIHLMYHFARFVAMKYIKSNSKNSSHHFVETFNIKPQDLHKCIARCHFARSRFLQILQRQDCVTQKYQENAQLSVKQVRNLRSECIGLENQIKKMEPYDDHSNMEEKIQKVRSLWASVNETLMFLEKEREVVSSVLSLVNQYALDGTNVAINIPRLLLDKIEKQMFQLHIGNVYEAGKLNLLTVIQLLNEVLKVMKYERCQADQARLTVDLHYLEKETKFQKERLSDLKHMRYRIKDDLTTIRHSVVEKQGEWHKKWKEFLGLSPFSLIKGWTPSVDLLPPMSPLSFDPASEEVYAKSILCQYPASLPDAHKQHNQENGCRGDSDTLGALHDLANSPASFLSQSVSSSDRNSVTVLEKDTKMGTPKEKNEAISKKIPEFEVENSPLSDVAKNTESSAFGGSLPAKKSDPFQKEQDHLVEEVARAVLSDSPQLSEGKEIKLEELIDSLGSNPFLTRNQIPRTPENLITEIRSSWRKAIEMEENRTKEPIQMDAEHREVLPESLPVLHNQREFSMADFLLETTVSDFGQSHLTEEKVISDCECVPQKHVLTSHIDEPPTQNQSDLLNKKVICKQDLECLAFTKLSETSRMETFSPAVGNRIDVMGGSEEEFMKILDHLEVSCNKPSTNKTMLWNSFQISSGISSKSFKDNDFGILHETLPEEVGHLSFNSSSSSEANFKLEPNSPMHGGTLLEDVVGGRQTTPESDFNLQALRSRYEALKKSLSKKREESYLSNSQTPERHKPELSPTPQNVQTDDTLNFLDTCDLHTEHIKPSLRTSIGERKRSLSPLIKFSPVEQRLRTTIACSLGELPNLKEEDILNKSLDAKEPPSDLTR

These molecules were tested against FLAG-tagged PB1 derived from influenza A/Puerto Rico/8/1934 (PR8) (influenza A virus A/Puerto Rico/8/1934 (H1N1)) (UniProt P03431) (assay: affinity purification with mass spectrometry).

Molecule	binding
GALK1 (from UniProt P51570 1-392)	binds
IQSEC1 (from UniProt Q6DN90 1-963)	binds
PDCD6 (from UniProt O75340 1-191)	binds
STUB1 (from UniProt Q9UNE7 1-303)	binds
endogenous TRIM32 (tripartite motif-containing protein 32) (from UniProt Q13049 1-653)	binds
B1	binds
